The target in the series is WRKY6-His (UniProt Q9C519). In words: EMSA. As to conditions: EMSA: 20 uL, 0.5 ug protein, 1 uL of 50 ug/mL biotin probe, 2 uL 10x buffer (1x = 10 mM Tris, 50 mM KCl, 1 mM DTT, pH 7.5), 1 uL 1% NP-40, 0.5 uL 1 mg/mL poly(dI-dC); recombinant protein; protein details: His (pET30a); label: biotin; probe letters rebuilt from the primers and the genome. Background: A gel shift assay detects complexes by their altered migration in electrophoresis.

By UniProt entry, the sequences of proteins in these tests, tags left out. Where a name states a change or a piece, a line headed by the entry shows the natural chain unless it says otherwise.
UniProt Q9C519: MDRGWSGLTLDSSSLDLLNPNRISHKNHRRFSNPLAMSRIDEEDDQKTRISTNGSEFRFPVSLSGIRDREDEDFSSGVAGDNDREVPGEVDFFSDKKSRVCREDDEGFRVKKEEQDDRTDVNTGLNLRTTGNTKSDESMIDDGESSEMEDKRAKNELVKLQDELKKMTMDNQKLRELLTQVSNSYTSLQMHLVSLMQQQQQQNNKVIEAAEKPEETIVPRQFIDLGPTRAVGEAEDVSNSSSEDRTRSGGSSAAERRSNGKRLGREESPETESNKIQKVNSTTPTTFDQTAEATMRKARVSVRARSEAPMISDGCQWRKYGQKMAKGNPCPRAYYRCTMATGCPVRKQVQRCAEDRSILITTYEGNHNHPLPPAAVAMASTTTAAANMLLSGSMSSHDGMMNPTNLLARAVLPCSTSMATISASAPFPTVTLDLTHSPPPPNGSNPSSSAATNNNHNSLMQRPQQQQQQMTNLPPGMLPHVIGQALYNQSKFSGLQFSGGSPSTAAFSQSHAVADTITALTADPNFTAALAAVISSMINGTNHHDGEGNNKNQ

The exact form of at least one protein or probe is not confirmed. No signal at the amounts used counts as a negative.

Take “ATATTTGTAAGAATGCGTGTTTGAGGGGAGTAATTATAGTATATGTGCAGGTGCATGGGAAGTAAGATGGGTGTGTATGGGTCAACTCAAAGAACACAAAGGAAGCTTCGTGGAAACATAATGAAATATACGGCATTTAATTTAGGTTACTATATTAGGGTCTATTTCATGAACTGTTGATGTAACTTATAGAAGAAAACACACGAAGCAATAATAATCCTTATAATAAGTTAGTATTTTATTTATGTAAGAAAAAGAGAAAAGAGAGTATAGGAACAAATATAGAAATGAATATGTTGTGGGC (double strand) [RAV1 promoter P1]”: the binding result is listed as “no binding”.

The record behind these values is paper PMC4734665.
